Laboratory results as given in PubChem BioAssay AID1508600 (Functional Genomics Laboratory (NCATS/FGL), 2020).
The whole screen tested about 53,000 sequences, of which about 3,700 (7%) were called active.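 The calls were made as follows: active = gene knockdowns whose robust z-score for IL-1 alpha signal is at least 2 or at most -2, so actives lie on both sides; inactive = the rest.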 The list shows a part of the results.

Test: Components of the Cytosolic LPS Sensing Pathway: Gene Identification via Genome-wide siRNA Screen;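 also: robust z of the log signal after scaling to non-targeting control siRNA wells of the plate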
Conditions: RAW264.7 macrophages, IL-1a HTRF, actives lie on both sides, screened at 100 nM (by protocol), cells primed 5 h with Pam3CSK4 first
Summary of the method: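 Supernatant IL-1a by HTRF from RAW264.7 cells primed with Pam3CSK4 (5 hours) and transfected with LipidA (24 hour) after 48h siRNA knockdown at 100 nM; cell viability checked with CellTiter-Glo.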

z-score, inactive:
GCAAAGAUUCAGGCCUGUGTT against Tle6 -0.873, GGAAACAAGGAAACAACAGTT against Iqcf4 1.85, GGGAAGGCAAUUUAAAAAATT against Cfap36 0.143, GGGCUUAUUUAAAAAGAAGTT against Foxa1 -0.196, GGCAAUCAAUUGGUAGGUATT against Gm5089 -0.233, GGCAAAGCACUGGUUGUGUTT against Sptlc3 0.286, GGAUACAGCCUGCCAGUUCTT against Casz1 0.878, CCUGGUGCUAUGGACUAAATT against Tectb -1.15, GGCAAAAAGAUAGGAGCUGTT against Txn1 0.57, GGCUGUGGAAAACAGUAGUTT against Psma3 -1.84, GGUUUUCCCUCCAGAUGAGTT against Mtch1 -0.336, GCCAAUUGUGUCUAAAUUUTT against Trim30b 1.55, GCCCAAAGUACAUUUGGUGTT against Dbndd1 0.748, CGUAAAAGGACUCUACAAATT against Papss2 1.19, GGCGCAUUAUGGAGACUCATT against Cebpe 0.526, GGACUUUGCGUAUAGCCCUTT against Tulp3 -0.381, GGAGGAAGAUGGUCAUUCCTT against Tgs1 -1.16, GCACUUUGCACACUUAUUATT against Iqub 0.532, CGCAACAGCUAGGAUUUUUTT against Me1 0.193, GGCUGUUCGUGCAAGCCUATT against Bahcc1 0.544, UGUUGUUUUACCUGUGCCUTT against Gm10283 -1.14, GGAGAUCCACGAUUUGUUCTT against Adck1 1.87, GGUACAGUAUGUGAUUCAATT against Babam2 0.0103, GGAUGUAUAACUUUUUCUCTT against Pltp 0.46, CGCUAUGGUUUCUCAGCUUTT against Myh4 -0.02, CCCAAGUUUGUAAAAGAAUTT against Cldnd1 0.474, GCUAAGAAUGAGCAUUAUCTT against Npr2 -1.47, CCUAUUAUUCCAACUUUUGTT against Cercam -0.0904, GGAGGCCGUAAUAUCUCCUTT against Krt13 -0.0683, GGGCAGCAGCAAUUUCUGUTT against Ahcyl1 1.39, GGUGAAACGACUGUUAAGUTT against Pde7b 0.0774, GGAUCAUGUGUCAGUAACATT against Hmgn2 -0.734, GCUCACCUUUCUUGAGAAATT against 4930579C12Rik -0.179, GGAUGAGAAGGAGAAAUACTT against Mael -0.16, GCUGUAUGGGAAGGGUUACTT against Tsen2 0.829, GGAUAUCACUUGCUAUUCCTT against Abraxas2 -0.406, GGACCUUACUCAUCUAGCATT against D630004N19Rik 1.78, GGACUUGGAAUAUGGACCATT against Mecom -0.804, GGGAAAGCCAUAUUUUUUATT against Galr1 0.839, GCAUAUGGAGCAACUUGCUTT against Dsg1c -1.17, CAAUAGAGACUAGCCUCAUTT against Olfr160 0.709, GGAUUUUGGGAAUAGAACUTT against Rtp4 -0.636, GGUAUUCCAGAGAAAGAUATT against Zfp207 -1.35, GCUGAGAUCUUACUAUUAGTT against Olfr1239 0.172, GGCAUUAAACAAGAAGCUUTT against Epyc -1.16, GCUGAAUGGAAGGAAGUUGTT against Wdr83os -1.32, GCCUCAACCAAUCAUGAAGTT against Dbp -0.369, CCUAAUGGUUCAGGAUACGTT against Pcdhb5 -0.641, GGAGCACAUCUUUUCUGCCTT against Mixl1 -1.22, GGAAGCAGUCAGCUAACACTT against Baz1b -1.64, GCUAUGAGCUAACAAGUCUTT against Xkr5 -0.0244, CCAAAUGAAAUUAGUCCUCTT against Eif5 -0.347, CCUUGUAAGUGAGAUCCGATT against Olfr118 1.38, GGAGUUUUGAAUAACAGCUTT against Ntn3 -0.963, GGAUCUAGAAAUGGUUAAGTT against Evpl 0.209, GGACUUAUGGCAUUAGAAUTT against Nup88 -1.17, GCUUCGACAAAAGAAGAUGTT against Ccdc174 -0.373, GGACCCAACCUCAAUGAAATT against Arfip2 0.57, UGAUUGUCCUUACAAUGGUTT against Olfr1065 -0.0653, GGGUCUAUACCAUCCGGGATT against Mdga2 0.0197, CCGCUAGACAAAUUUUGCCTT against Slc6a2 1.45, GGAGAUACUGAAAGAGGCCTT against C1qtnf12 -1.25, GGUGUGCUGUGUAAGGGAGTT against Inpp5b 0.952, GCUCAUUCGAGAGGAGAACTT against Cby2 0.636, GGAAGAAGAUUCCUUACAATT against Spata21 1.18, GGCUAAAUAUGUGAUUAGUTT against Maob -0.311, CCUAUUGCUGCCCUCAAGATT against Irf2bp1 0.00965, GCACAUUCGAUAUGCAACATT against Cops3 -1.33, CCUUAAUGGUAAAUCCUCGTT against Vmn1r199 -0.478, GGGAACAGCAUCUCUGUCATT against Lypd6 -0.169, GGUGAGAAGACCAUUGAUUTT against Insr 0.459, GGGACAUGAUUUUGAACUUTT against Pfkfb2 0.701, CCUGUGUUUCAGUUUGGUATT against Clptm1l 0.549, GCUAGUCUUAUGGACCAGATT against Eaf2 -0.764, GGGAAUCAUUAACAGCUUGTT against Hectd2 1.08, GGGUGAGCGACAGAUGUCATT against Plcz1 -1.67, GGUCAAAGUAGGUAAAGAATT against Snx2 -1.23, GGAACUUAACUAUUGCACUTT against Hs3st1 1.07, GCGCGAUCACAUUCUUUAGTT against 4921522P10Rik 0.569, GCCUCUCCUAUGUUCAGAGTT against Msl3l2 0.836, GGAACCAUGGACCUUAAUUTT against Rbm4 0.291, GGCAGUGCAAGCCUUCAUGTT against Emp1 0.816, CGGAUACAAUUUCUGACCGTT against Zdhhc23 -0.163, GGGCAGAACGCAUCUUGCATT against Gpt -1.93, GGAUGCAUUUUUUCUGGAATT against Nop53 0.85, GGAUGCACAUUCCUCUACATT against Clca2 0.0784, GGUAUGCACUCACACCAGATT against Mus81 0.73, GGUGAUUGAAGUUUGUGAGTT against D230025D16Rik 0.506, GGAACCAAUCGGGAUUUUGTT against B330016D10Rik 0.179, GGGUGAAAGACAGAGGACATT against Prmt7 -1.13, GGACCCUGAAGGAGCUGAATT against Per2 -0.409, GGAUCAUUUCUGGUGAUAATT against Map3k8 -0.46, GCAAUAUGUAUGUUAGUCUTT against Olfr1241 -1.67, GCCUAGACAAUGGUGACCUTT against Nsfl1c -0.772, GCAACGUGUAUUUAAAGACTT against Nrd1 1.16, GGGCUUUAAUUCACAGAGCTT against Ticam2 -1.23, GGCUGAGUUAUUUGUGACATT against Syt13 -1.41, GGACAUGACAUUUUUACGCTT against Cyp4f16 -1.26, GGGAAUCUGGAAGACACCATT against Hap1 -0.717, GGUGGACAAGGAGAGGACUTT against H2-Q1 0.109, GGAGCAGGAGAAAAUUUUGTT against Olfr437 -0.0124, CCUGAGGUGUUUUACAUAUTT against Med20 0.085, GGAUGAUUGAGAUAGCGAATT against Polr1e 0.608, CCUUGUGAAUACCCUAAUUTT against Mrpl43 0.123

z-score, active:
GGUGGAAGCACAGAGUUGCTT against Prdm15 2.14, GGGCUGAUGCUUAAACAAATT against Vmn1r72 -2.19
